Values of other authors, collected in publication PMC3401593 (Journal of Pharmaceutical Sciences, 2009).

Details: cited from earlier work

CN1CC[C@]23c4c5ccc(O)c4O[C@H]2[C@@H](O)C=C[C@H]3[C@H]1C5 [morphine]
Brain penetration enhancement in mdr1a (−/−) mice: 1.7 fold
